The chains behind the UniProt entries cited, without tags or fusion partners. Where a name states a change or a piece, a line headed by the entry shows the natural chain unless it says otherwise.
UniProt P29597: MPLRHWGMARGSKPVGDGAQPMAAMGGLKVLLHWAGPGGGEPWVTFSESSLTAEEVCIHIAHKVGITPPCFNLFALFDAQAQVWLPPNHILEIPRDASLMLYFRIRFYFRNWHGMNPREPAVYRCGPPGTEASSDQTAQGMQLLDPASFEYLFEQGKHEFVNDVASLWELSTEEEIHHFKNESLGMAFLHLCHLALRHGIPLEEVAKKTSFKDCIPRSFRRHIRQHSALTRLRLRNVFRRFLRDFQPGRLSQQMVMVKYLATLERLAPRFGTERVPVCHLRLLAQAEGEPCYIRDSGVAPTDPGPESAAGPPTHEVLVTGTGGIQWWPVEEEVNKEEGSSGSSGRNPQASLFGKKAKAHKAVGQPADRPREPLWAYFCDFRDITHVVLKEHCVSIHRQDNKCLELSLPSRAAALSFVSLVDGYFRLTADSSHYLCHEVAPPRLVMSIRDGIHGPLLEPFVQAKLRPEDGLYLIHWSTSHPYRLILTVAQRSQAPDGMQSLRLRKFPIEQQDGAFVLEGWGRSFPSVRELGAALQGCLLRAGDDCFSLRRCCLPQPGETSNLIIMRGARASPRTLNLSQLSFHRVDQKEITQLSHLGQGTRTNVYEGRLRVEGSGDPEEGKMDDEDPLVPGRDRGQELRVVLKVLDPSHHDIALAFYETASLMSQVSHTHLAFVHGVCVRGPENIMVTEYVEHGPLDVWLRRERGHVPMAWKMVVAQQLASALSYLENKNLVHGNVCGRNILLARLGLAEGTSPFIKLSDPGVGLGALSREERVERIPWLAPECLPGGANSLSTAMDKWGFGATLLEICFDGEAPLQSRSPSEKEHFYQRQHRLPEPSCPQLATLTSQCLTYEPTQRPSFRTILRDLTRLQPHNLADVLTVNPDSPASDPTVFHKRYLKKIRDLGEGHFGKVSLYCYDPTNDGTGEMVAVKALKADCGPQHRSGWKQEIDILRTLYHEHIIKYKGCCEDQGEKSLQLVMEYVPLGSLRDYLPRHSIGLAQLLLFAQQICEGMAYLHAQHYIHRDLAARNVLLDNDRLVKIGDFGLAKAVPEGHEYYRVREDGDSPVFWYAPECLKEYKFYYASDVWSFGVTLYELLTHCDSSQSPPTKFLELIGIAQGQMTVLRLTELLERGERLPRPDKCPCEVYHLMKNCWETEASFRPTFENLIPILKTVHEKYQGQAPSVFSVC
UniProt Q6PHR2: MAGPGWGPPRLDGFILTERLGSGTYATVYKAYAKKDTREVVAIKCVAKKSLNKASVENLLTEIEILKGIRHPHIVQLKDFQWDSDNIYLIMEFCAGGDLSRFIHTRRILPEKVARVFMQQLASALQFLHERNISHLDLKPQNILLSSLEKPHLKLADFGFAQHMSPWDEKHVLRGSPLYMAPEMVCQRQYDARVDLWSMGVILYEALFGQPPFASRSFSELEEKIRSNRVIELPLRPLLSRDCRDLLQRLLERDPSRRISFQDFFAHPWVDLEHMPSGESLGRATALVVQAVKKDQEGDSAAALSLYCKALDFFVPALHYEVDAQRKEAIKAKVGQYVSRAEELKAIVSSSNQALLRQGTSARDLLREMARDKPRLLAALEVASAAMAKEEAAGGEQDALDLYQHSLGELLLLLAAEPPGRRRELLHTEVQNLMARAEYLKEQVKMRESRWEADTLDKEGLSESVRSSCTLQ

Structures can show the parent of a compound that is named as a salt. The list shows a part of the results. The calls rarely recur for the same compound in another form.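 In K562 cells expressing nanoluciferase-fused kinases, luminescence was recorded at 4 h intervals between 2 and 18 h, normalized as percent of control with DMSO at 100% and a positive control at 0%. A significant (2 sigma) signal drop marks a time point as decreased. The authors' rule for a hit is not shown and takes in more than the number of time points.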
What follows are compounds tested against TYK2 (UniProt P29597) (assay: number of time points (of 5) at which kinase-Nluc abundance scored as decreased, DMSO-normalised (count); higher = more persistent destabilization). Settings: K562; 2-18 h.
`COc1ccc(S(=O)(=O)Nc2cc(-c3c(O)ccc4ccccc34)c(O)c3ccccc23)cc1` (10 µM) was tested, and the “number of time points” value was 0.
In the case of `CC(C)(C)Cc1[nH]nc2c1[C@@](C)(c1ccccc1)C1=C(CC(C)(C)CC1=O)N2` (10 µM), the “number of time points” value is reported as 0.
In the case of `Cn1c2cc([S+](C)[O-])sc2c2cnn(Cc3cccc(N)c3)c(=O)c21` (centres undefined) (2.5 µM), the “number of time points” value is reported as 0.
`Nc1ncc(-c2ccnc(Nc3ccncc3)n2)c(CC2CC2)n1` (10 µM) was tested, and the “number of time points” value was 0.
With `O=C(NCCN1CCOCC1)Nc1nc2ccc(Sc3nnc4ccc(-c5ccc(F)cc5)nn34)cc2s1` (10 µM) the “number of time points” value was 0.
`CC(C)Oc1ccc(F)c(-c2cnc(N)c(C(=O)Nc3cnccc3N3CCC[C@@H](C(=O)O)C3)n2)c1` (2 µM) was tested, and the “number of time points” value was 2.

These compounds were tested against ULK3 (UniProt Q6PHR2) in the same assay as above. Settings: K562; 2-18 h.
In the case of `Cn1cc(-c2cc(Oc3cc(F)c(NC(=O)C4(C(=O)Nc5ccccc5)CC4)cc3F)ccn2)cn1` (2.5 µM), the “number of time points” value is reported as 0.
`Nc1[nH]nc2nc(-c3ccc(NS(=O)(=O)c4cc(Cl)ccc4Cl)cc3)cnc12` (10 µM) was tested, and the “number of time points” value was 0.
For `Cc1cccc(/C=N/Nc2cc(N3CCOCC3)n3nc(-c4ccncc4)cc3n2)c1` (10 µM), the “number of time points” value was 0.
`CC(C)n1ncnc1-c1cn2c(n1)-c1ccc(O[C@@H](C)C(N)=O)cc1OCC2` (10 µM) was tested, and the “number of time points” value was 0.
With `COC(=O)[C@H](CCSC)NC(=O)c1ccc(NC[C@@H](N)CS)cc1-c1ccccc1` [FTI-277 (hydrochloride)] (10 µM) the “number of time points” value was 1.
With `O=C(Nc1cccc(-c2nc(-c3ccc(NC(=O)c4cccnc4)cc3Cl)no2)c1)Nc1ccc(NC(=O)C2CC2)c(C(F)(F)F)c1` (2.5 µM) the “number of time points” value was 0.
With `CN1CCN(c2cc(-c3ccncc3)c(-c3ccc4ccccc4c3)nn2)CC1` (10 µM) the “number of time points” value was 0.
`CNC(=O)c1ccc2c(c1)ncn2-c1ccc(CC(=O)OC(C)(C)C)cc1` (10 µM) was tested, and the “number of time points” value was 0.
In the case of `O=C(O)[C@H]1O[C@@H](Oc2cc3oc(-c4ccc(O)cc4)cc(=O)c3c(O)c2O)[C@H](O)[C@@H](O)[C@@H]1O` [Scutellarin] (10 µM), the “number of time points” value is reported as 0.
`Cc1nn(C)cc1-c1nc2c(N3CCN(Cc4ccc(Cl)cc4)CC3)c(Cl)cnc2[nH]1` (10 µM) was tested, and the “number of time points” value was 0.
In the case of `Cc1cc(CSc2ccccc2C(=O)NCCNc2ccc(C(F)(F)F)cc2[N+](=O)[O-])on1` (10 µM), the “number of time points” value is reported as 0.
`NC(=O)c1cnc(-c2ccc(C3(N)CCC3)cc2)c(-c2ccccc2)c1` (10 µM) was tested, and the “number of time points” value was 0.
For `CCCCCC(=O)N[C@@H](Cc1ccc(O)cc1)C(=O)OC` (10 µM), the “number of time points” value was 0.
With `CNC(=O)c1ccc2c(C(=Nc3cccc(CN(C)C)c3)c3ccccc3)c(O)[nH]c2c1` [MEK inhibitor] (10 µM) the “number of time points” value was 0.
For `COc1cc2ncnc(Nc3cccc(I)c3)c2cc1OC` (2.5 µM), the “number of time points” value was 0.
With `COc1c(O)cc2oc(-c3ccc(O)cc3)cc(=O)c2c1O` [Hispidulin] (10 µM) the “number of time points” value was 1.
`CC(C)=CC[C@@H](O)C1=CC(=O)c2c(O)ccc(O)c2C1=O` [Shikonin] (10 µM) was tested, and the “number of time points” value was 0.
In the case of `N[C@@H]1CCCN(c2c(/C=C3\SC(=O)NC3=O)cccc2-c2ccccc2)C1` (10 µM), the “number of time points” value is reported as 0.
With `NC(=O)c1ccc(N(C(N)=O)c2c(F)cccc2F)nc1-c1ccc(F)cc1F` (10 µM) the “number of time points” value was 0.
`NC1(C(=O)NCCCn2cc(-c3ccc(OC(F)(F)F)cc3)c3cc(CN4CCN(Cc5c(Cl)cccc5Cl)CC4)ccc32)CCNCC1` (2.5 µM) was tested, and the “number of time points” value was 0.
For `Cc1cc(O)c2c(c1)C(=O)c1cccc(O)c1C2=O` [Chrysophanol] (2 µM), the “number of time points” value was 0.
`COc1cc2nccc(Oc3ccc(NC(=O)c4cn(C(C)C)c(=O)n(-c5ccc(F)cc5)c4=O)cc3F)c2cc1OC` (0.5 µM) was tested, and the “number of time points” value was 0.
With `O=C(Nc1cccnc1)c1cc(-c2ccnc(F)c2)ccc1OCc1ccccc1` (10 µM) the “number of time points” value was 0.
`NC[C@@](O)(c1ccc(Cl)cc1)c1ccc(-c2cn[nH]c2)cc1` (10 µM) was tested, and the “number of time points” value was 0.
With `O=C1NC(=O)/C(=C\c2c[nH]c(=O)c(-c3ccc(N4CCNCC4)nc3)c2)S1` [Protein kinase inhibitors 1 hydrochloride] (10 µM) the “number of time points” value was 0.
`C[C@@H](Nc1ncnc2[nH]c(-c3ccc(O)cc3)cc12)c1ccccc1` (2.5 µM) was tested, and the “number of time points” value was 0.
With `Cc1ccc(C(=O)NC2CC2)cc1-n1ncc(C(=O)c2cccc(C#N)c2)c1N` [Acumapimod] (10 µM) the “number of time points” value was 0.
`C[C@H]1O[C@@H](O[C@H]2CC[C@@]3(C)[C@@H](CC[C@]4(C)[C@@H]3C=C[C@]35OC[C@@]6(CCC(C)(C)C[C@H]63)[C@H](O)C[C@]54C)[C@]2(C)CO)[C@H](O)[C@@H](O[C@@H]2O[C@H](CO)[C@@H](O)[C@H](O)[C@H]2O)[C@H]1O` [Saikosaponin D] (2.5 µM) was tested, and the “number of time points” value was 0.
In the case of `N#Cc1ccc(-c2cnc3[nH]cc(NC(=O)c4cccnc4)c3c2)cc1` (10 µM), the “number of time points” value is reported as 0.
`CCCCCc1ccc(/C=C/[C@H](O)[C@@H](CO)NC)cc1` [SK1-I (hydrochloride)] (10 µM) was tested, and the “number of time points” value was 0.
`COc1ccc2c3n(c(=NC(=O)c4cccnc4)nc2c1OC)CCN3` (2 µM) was tested, and the “number of time points” value was 0.
`CN1CCN(c2ccc(Nc3ncc4cc(C#N)c(=O)n(C5CCCC5)c4n3)cc2)CC1` (10 µM) was tested, and the “number of time points” value was 0.
In the case of `COc1ccc(S(=O)(=O)Nc2cc(-c3c(O)ccc4ccccc34)c(O)c3ccccc23)cc1` (10 µM), the “number of time points” value is reported as 0.
For `CC(C)(C)Cc1[nH]nc2c1[C@@](C)(c1ccccc1)C1=C(CC(C)(C)CC1=O)N2` (10 µM), the “number of time points” value was 0.
In the case of `Cn1c2cc([S+](C)[O-])sc2c2cnn(Cc3cccc(N)c3)c(=O)c21` (centres undefined) (2.5 µM), the “number of time points” value is reported as 0.
In the case of `Nc1ncc(-c2ccnc(Nc3ccncc3)n2)c(CC2CC2)n1` (10 µM), the “number of time points” value is reported as 0.
In the case of `O=C(NCCN1CCOCC1)Nc1nc2ccc(Sc3nnc4ccc(-c5ccc(F)cc5)nn34)cc2s1` (10 µM), the “number of time points” value is reported as 0.
With `CC(C)Oc1ccc(F)c(-c2cnc(N)c(C(=O)Nc3cnccc3N3CCC[C@@H](C(=O)O)C3)n2)c1` (2 µM) the “number of time points” value was 0.
